Drawing on US20170362301A1 (Janssen / Centocor, published 2017), this text covers binding for 36 molecules.

The labels stand for the following.
B1: P54AR4-83v2 A3C, NEM conjugate (designed binder)
chain: LPCPKNLVVSEVTEDSARLSWDDPWAFYESFLIQYQESEKVGEAIVLTVPGSERSYDLTGLKPGTEYTVSIYGVHNVYKDTNMRGLPLSAIFTT
modifications: NEM on Cys 3
notes: His-tagged
B2: P54AR4-83v2 T81C, NEM conjugate (designed binder)
chain: LPAPKNLVVSEVTEDSARLSWDDPWAFYESFLIQYQESEKVGEAIVLTVPGSERSYDLTGLKPGTEYTVSIYGVHNVYKDCNMRGLPLSAIFTT
modifications: NEM on Cys 81
notes: His-tagged
B3: P54AR4-83v2 Y78C, NEM conjugate (designed binder)
chain: LPAPKNLVVSEVTEDSARLSWDDPWAFYESFLIQYQESEKVGEAIVLTVPGSERSYDLTGLKPGTEYTVSIYGVHNVCKDTNMRGLPLSAIFTT
modifications: NEM on Cys 78
notes: His-tagged
B4: P54AR4-83v2 W25C, NEM conjugate (designed binder)
chain: LPAPKNLVVSEVTEDSARLSWDDPCAFYESFLIQYQESEKVGEAIVLTVPGSERSYDLTGLKPGTEYTVSIYGVHNVYKDTNMRGLPLSAIFTT
modifications: NEM on Cys 25
notes: His-tagged
B5: P54AR4-83v2 L7C, NEM conjugate (designed binder)
chain: LPAPKNCVVSEVTEDSARLSWDDPWAFYESFLIQYQESEKVGEAIVLTVPGSERSYDLTGLKPGTEYTVSIYGVHNVYKDTNMRGLPLSAIFTT
modifications: NEM on Cys 7
notes: His-tagged
B6: P54AR4-83v2 K5C, NEM conjugate (designed binder)
chain: LPAPCNLVVSEVTEDSARLSWDDPWAFYESFLIQYQESEKVGEAIVLTVPGSERSYDLTGLKPGTEYTVSIYGVHNVYKDTNMRGLPLSAIFTT
modifications: NEM on Cys 5
notes: His-tagged
B7: P54AR4-83v2 N82C, NEM conjugate (designed binder)
chain: LPAPKNLVVSEVTEDSARLSWDDPWAFYESFLIQYQESEKVGEAIVLTVPGSERSYDLTGLKPGTEYTVSIYGVHNVYKDTCMRGLPLSAIFTT
modifications: NEM on Cys 82
notes: His-tagged
B8: P54AR4-83v2 T48C, NEM conjugate (designed binder)
chain: LPAPKNLVVSEVTEDSARLSWDDPWAFYESFLIQYQESEKVGEAIVLCVPGSERSYDLTGLKPGTEYTVSIYGVHNVYKDTNMRGLPLSAIFTT
modifications: NEM on Cys 48
notes: His-tagged
B9: P54AR4-83v2 K62C, NEM conjugate (designed binder)
chain: LPAPKNLVVSEVTEDSARLSWDDPWAFYESFLIQYQESEKVGEAIVLTVPGSERSYDLTGLCPGTEYTVSIYGVHNVYKDTNMRGLPLSAIFTT
modifications: NEM on Cys 62
notes: His-tagged
B10: P54AR4-83v2 R54C, NEM conjugate (designed binder)
chain: LPAPKNLVVSEVTEDSARLSWDDPWAFYESFLIQYQESEKVGEAIVLTVPGSECSYDLTGLKPGTEYTVSIYGVHNVYKDTNMRGLPLSAIFTT
modifications: NEM on Cys 54
notes: His-tagged
B11: P54AR4-83v2 N6C, NEM conjugate (designed binder)
chain: LPAPKCLVVSEVTEDSARLSWDDPWAFYESFLIQYQESEKVGEAIVLTVPGSERSYDLTGLKPGTEYTVSIYGVHNVYKDTNMRGLPLSAIFTT
modifications: NEM on Cys 6
notes: His-tagged
B12: P54AR4-83v2 S38C, NEM conjugate (designed binder)
chain: LPAPKNLVVSEVTEDSARLSWDDPWAFYESFLIQYQECEKVGEAIVLTVPGSERSYDLTGLKPGTEYTVSIYGVHNVYKDTNMRGLPLSAIFTT
modifications: NEM on Cys 38
notes: His-tagged
B13: P54AR4-83v2 T59C, NEM conjugate (designed binder)
chain: LPAPKNLVVSEVTEDSARLSWDDPWAFYESFLIQYQESEKVGEAIVLTVPGSERSYDLCGLKPGTEYTVSIYGVHNVYKDTNMRGLPLSAIFTT
modifications: NEM on Cys 59
notes: His-tagged
B14: P54AR4-83v2 S16C, NEM conjugate (designed binder)
chain: LPAPKNLVVSEVTEDCARLSWDDPWAFYESFLIQYQESEKVGEAIVLTVPGSERSYDLTGLKPGTEYTVSIYGVHNVYKDTNMRGLPLSAIFTT
modifications: NEM on Cys 16
notes: His-tagged
B15: P54AR4-83v2 I45C, NEM conjugate (designed binder)
chain: LPAPKNLVVSEVTEDSARLSWDDPWAFYESFLIQYQESEKVGEACVLTVPGSERSYDLTGLKPGTEYTVSIYGVHNVYKDTNMRGLPLSAIFTT
modifications: NEM on Cys 45
notes: His-tagged
B16: P54AR4-83v2 G60C, NEM conjugate (designed binder)
chain: LPAPKNLVVSEVTEDSARLSWDDPWAFYESFLIQYQESEKVGEAIVLTVPGSERSYDLTCLKPGTEYTVSIYGVHNVYKDTNMRGLPLSAIFTT
modifications: NEM on Cys 60
notes: His-tagged
B17: P54AR4-83v2 S89C, NEM conjugate (designed binder)
chain: LPAPKNLVVSEVTEDSARLSWDDPWAFYESFLIQYQESEKVGEAIVLTVPGSERSYDLTGLKPGTEYTVSIYGVHNVYKDTNMRGLPLCAIFTT
modifications: NEM on Cys 89
notes: His-tagged
B18: P54AR4-83v2 T68C, NEM conjugate (designed binder)
chain: LPAPKNLVVSEVTEDSARLSWDDPWAFYESFLIQYQESEKVGEAIVLTVPGSERSYDLTGLKPGTEYCVSIYGVHNVYKDTNMRGLPLSAIFTT
modifications: NEM on Cys 68
notes: His-tagged
B19: P54AR4-83v2 S70C, NEM conjugate (designed binder)
chain: LPAPKNLVVSEVTEDSARLSWDDPWAFYESFLIQYQESEKVGEAIVLTVPGSERSYDLTGLKPGTEYTVCIYGVHNVYKDTNMRGLPLSAIFTT
modifications: NEM on Cys 70
notes: His-tagged
B20: P54AR4-83v2 S30C, NEM conjugate (designed binder)
chain: LPAPKNLVVSEVTEDSARLSWDDPWAFYECFLIQYQESEKVGEAIVLTVPGSERSYDLTGLKPGTEYTVSIYGVHNVYKDTNMRGLPLSAIFTT
modifications: NEM on Cys 30
notes: His-tagged
B21: P54AR4-83v2 T93C, NEM conjugate (designed binder)
chain: LPAPKNLVVSEVTEDSARLSWDDPWAFYESFLIQYQESEKVGEAIVLTVPGSERSYDLTGLKPGTEYTVSIYGVHNVYKDTNMRGLPLSAIFCT
modifications: NEM on Cys 93
notes: His-tagged
B22: P54AR4-83v2 E14C, NEM conjugate (designed binder)
chain: LPAPKNLVVSEVTCDSARLSWDDPWAFYESFLIQYQESEKVGEAIVLTVPGSERSYDLTGLKPGTEYTVSIYGVHNVYKDTNMRGLPLSAIFTT
modifications: NEM on Cys 14
notes: His-tagged
B23: P54AR4-83v2 E53C, NEM conjugate (designed binder)
chain: LPAPKNLVVSEVTEDSARLSWDDPWAFYESFLIQYQESEKVGEAIVLTVPGSCRSYDLTGLKPGTEYTVSIYGVHNVYKDTNMRGLPLSAIFTT
modifications: NEM on Cys 53
notes: His-tagged
B24: P54AR4-83v2 K40C, NEM conjugate (designed binder)
chain: LPAPKNLVVSEVTEDSARLSWDDPWAFYESFLIQYQESECVGEAIVLTVPGSERSYDLTGLKPGTEYTVSIYGVHNVYKDTNMRGLPLSAIFTT
modifications: NEM on Cys 40
notes: His-tagged
B25: P54AR4-83v2 S20C, NEM conjugate (designed binder)
chain: LPAPKNLVVSEVTEDSARLCWDDPWAFYESFLIQYQESEKVGEAIVLTVPGSERSYDLTGLKPGTEYTVSIYGVHNVYKDTNMRGLPLSAIFTT
modifications: NEM on Cys 20
notes: His-tagged
B26: P54AR4-83v2 S10C, NEM conjugate (designed binder)
chain: LPAPKNLVVCEVTEDSARLSWDDPWAFYESFLIQYQESEKVGEAIVLTVPGSERSYDLTGLKPGTEYTVSIYGVHNVYKDTNMRGLPLSAIFTT
modifications: NEM on Cys 10
notes: His-tagged
B27: P54AR4-83v2 I91C, NEM conjugate (designed binder)
chain: LPAPKNLVVSEVTEDSARLSWDDPWAFYESFLIQYQESEKVGEAIVLTVPGSERSYDLTGLKPGTEYTVSIYGVHNVYKDTNMRGLPLSACFTT
modifications: NEM on Cys 91
notes: His-tagged; also called 191C
B28: P54AR4-83v2 V8C, NEM conjugate (designed binder)
chain: LPAPKNLCVSEVTEDSARLSWDDPWAFYESFLIQYQESEKVGEAIVLTVPGSERSYDLTGLKPGTEYTVSIYGVHNVYKDTNMRGLPLSAIFTT
modifications: NEM on Cys 8
notes: His-tagged
B29: P54AR4-83v2 D15C, NEM conjugate (designed binder)
chain: LPAPKNLVVSEVTECSARLSWDDPWAFYESFLIQYQESEKVGEAIVLTVPGSERSYDLTGLKPGTEYTVSIYGVHNVYKDTNMRGLPLSAIFTT
modifications: NEM on Cys 15
notes: His-tagged
B30: P54AR4-83v2 V41C, NEM conjugate (designed binder)
chain: LPAPKNLVVSEVTEDSARLSWDDPWAFYESFLIQYQESEKCGEAIVLTVPGSERSYDLTGLKPGTEYTVSIYGVHNVYKDTNMRGLPLSAIFTT
modifications: NEM on Cys 41
notes: His-tagged
B31: P54AR4-83v2 G64C, NEM conjugate (designed binder)
chain: LPAPKNLVVSEVTEDSARLSWDDPWAFYESFLIQYQESEKVGEAIVLTVPGSERSYDLTGLKPCTEYTVSIYGVHNVYKDTNMRGLPLSAIFTT
modifications: NEM on Cys 64
notes: His-tagged
B32: P54AR4-83v2 Q34C, NEM conjugate (designed binder)
chain: LPAPKNLVVSEVTEDSARLSWDDPWAFYESFLICYQESEKVGEAIVLTVPGSERSYDLTGLKPGTEYTVSIYGVHNVYKDTNMRGLPLSAIFTT
modifications: NEM on Cys 34
notes: His-tagged
B33: P54AR4-83v2 E11C, NEM conjugate (designed binder)
chain: LPAPKNLVVSCVTEDSARLSWDDPWAFYESFLIQYQESEKVGEAIVLTVPGSERSYDLTGLKPGTEYTVSIYGVHNVYKDTNMRGLPLSAIFTT
modifications: NEM on Cys 11
notes: His-tagged
B34: P54AR4-83v2 L88C, NEM conjugate (designed binder)
chain: LPAPKNLVVSEVTEDSARLSWDDPWAFYESFLIQYQESEKVGEAIVLTVPGSERSYDLTGLKPGTEYTVSIYGVHNVYKDTNMRGLPCSAIFTT
modifications: NEM on Cys 88
notes: His-tagged
B35: P54AR4-83v2 A90C, NEM conjugate (designed binder)
chain: LPAPKNLVVSEVTEDSARLSWDDPWAFYESFLIQYQESEKVGEAIVLTVPGSERSYDLTGLKPGTEYTVSIYGVHNVYKDTNMRGLPLSCIFTT
modifications: NEM on Cys 90
notes: His-tagged
B36: P54AR4-83v2 L47C, NEM conjugate (designed binder)
chain: LPAPKNLVVSEVTEDSARLSWDDPWAFYESFLIQYQESEKVGEAIVCTVPGSERSYDLTGLKPGTEYTVSIYGVHNVYKDTNMRGLPLSAIFTT
modifications: NEM on Cys 47
notes: His-tagged

Results are given in words; binding and its absence hold for the method and conditions named. Some entries that bind do so weakly or less than the wild type.

The first assay has as its target T1, EGFR (form in the assay not stated) (human, UniProt P00533 25-645, limits assumed). As to the kind of experiment: ELISA, NEM conjugate. On the technique in general: An ELISA detects its analyte on a solid surface through an enzyme-linked reagent.
With B1, the binding entry is on record as “binds”.

With B2, the binding result is reported as “binds”.

As to B3, the binding result is on record as “binds”.

For B4, the binding entry is “binds”.

For the molecule B5, the binding entry is given as “binds”.

Consider B6, for which the binding result is “binds”.

For the molecule B7, the binding result is “binds”.

The next assay deals with T1, EGFR (form in the assay not stated). The assay is described as follows: summary of the cys scan.
Consider B8, for which the binding entry is recorded as “binds”.

Turning to B9, the binding entry is recorded as “binds”.

As to B10, the binding entry was “binds”.

In the case of B11, the binding entry was “binds”.

Regarding B12, the binding result is “binds”.

For the molecule B13, the binding entry is “binds”.

With B14, the binding entry is recorded as “binds”.

For B15, the binding entry is on record as “binds”.

For the molecule B16, the binding result is reported as “binds”.

For the molecule B17, the binding entry is “binds”.

As to B18, the binding entry is on record as “binds”.

Turning to B19, the binding entry is on record as “binds”.

Turning to B20, the binding result is listed as “binds”.

As to B21, the binding entry was “binds”.

On to B22, for which the binding result is “binds”.

B23: the binding entry is recorded as “binds”.

As for B24, the binding result is “binds”.

Consider B25, for which the binding result is on record as “binds”.

As to B26, the binding entry is given as “binds”.

In the case of B27, the binding result was “binds”.

Regarding B28, the binding entry was “binds”.

With B29, the binding entry was “binds”.

Consider B30, for which the binding result was “binds”.

Consider B31, for which the binding entry is listed as “binds”.

For B32, the binding entry is “binds”.

In the case of B33, the binding entry is given as “binds”.

In the case of B34, the binding entry is “binds”.

B35: the binding result is “binds”.

As to B36, the binding entry was “binds”.
